First the molecules themselves.
B1: CCDC129 (protein, UniProt Q6ZRS4 1-1044)
chain: MMAQKSQGSDNLQEGQEKSKREILKCTKSAWAPLDEWLPPDPEEESQSLTIPMLEDSKQESIQQWLDSGFFVSANENFQQVIDRTVSLYEQGMVQMTVKDYMRSLHQFSETPILSRGTSFNSCYSTASVPQSIPEWLEFWEIDPVEILLDLGFGADEPDICMQIPARFLGCGSAARGINIRVFLEAQKQRMDIENPNLYGRFRQLEILDHVTNAFSSLLSDVSILPNRAEEKAGGESVQRTSVSAAKEHRRRMGKLLRRASKQNIRRDCNPEVSESFKVKDEVFVPFTKPWDCGAELAATSINHKQNHLSLSVEHQSLQACDDLLPYPPHGLLSKQWPCSSMPAKQAPPSCVSEGSVKGRTQKENLFQTNKLKSLSHLAGKGPDSFEMEEVQSFEEETGNPLDMTSGTVGARVDRANSCQSDSSGFLEEPLEPLPLQMPSLPNSQSPAENGGRKPRDQSHSLVSSQDCQLESDGPDSKSRASMSFSSQEANALEQRASVSVMEEEFLLEAMEGPPELYIPDMACAKTTTRGECPRKDSHLWQLLPMPHAEYEVTRPTATSKYDHPLGFMVTHVTEMQDSFVRPEGAGKVQSHHNESQRSPGNDHTQDKFLHVDSEAPREEESSGFCPHTNHSLLVPESSSQCIPKHSEITPYATDLAQTSEKLIPHLHKLPGDPAQVKSRSGTLGQILPGTEAEMENLPLNTGSSRSVMTQMSSSLVSAAQRAVALGTGPRGTSLECTVCDPVTATETRLGTKARQLNDASIQTSALSNKTLTHGPQPLTKSVSLDSGFSSICPMGTCHAIPAHCCICCHHHPHCHGERQSPGPEPSVCRHCLCSLTGHQEAQFMTTLKALQDTTVRELCSCTVHEMEAMKTICQSFREYLEEIEQHLMGQQALFSRDMSEEEREEAEQLQTLREALRQQVAELEFQLGDRAQQIREGILLQLEVLTAEPPEHYSNLHQYNWIEESNGQTSCSKIHPGMAPRTVFPPDDGQEAPCSGGTQLAAFTPPTLENSTRMSPSSSAWAKLGPTPLSNCPVGEKDADVFL
B2: CCBL1 (protein, UniProt Q16773 1-422)
chain: MAKQLQARRLDGIDYNPWVEFVKLASEHDVVNLGQGFPDFPPPDFAVEAFQHAVSGDFMLNQYTKTFGYPPLTKILASFFGELLGQEIDPLRNVLVTVGGYGALFTAFQALVDEGDEVIIIEPFFDCYEPMTMMAGGRPVFVSLKPGPIQNGELGSSSNWQLDPMELAGKFTSRTKALVLNTPNNPLGKVFSREELELVASLCQQHDVVCITDEVYQWMVYDGHQHISIASLPGMWERTLTIGSAGKTFSATGWKVGWVLGPDHIMKHLRTVHQNSVFHCPTQSQAAVAESFEREQLLFRQPSSYFVQFPQAMQRCRDHMIRSLQSVGLKPIIPQGSYFLITDISDFKRKMPDLPGAVDEPYDRRFVKWMIKNKGLVAIPVSIFYSVPHQKHFDHYIRFCFVKDEATLQAMDEKLRKWKVEL
B3: C2orf78 (protein, UniProt A6NCI8 1-922)
chain: MHWLASATQTSASIVSSSLLSAVDVSSSLTMSEYFQNTSLPGTANSRQFSLPVVSNAAFLTGSISNFSRASAPAISSAWLQPSASGTSFQPLMGSAYLYQHSSTTMLSGVTGQSHICTSAASYPGVFEWDSTASTVKKSSSLRDFTVTVIDQNTAVSSMSMTAQYYKTSDTNTMVPLYPSLSASLVQGTLTQIPNQQGHNLSLPCQIGSQVYYYNQGTLGPQLSCLQSYGSVSYTGYRASAHQPEMVMVLKEVQPTNVLPPVSTSGMYYSVSSQPITETSVQVMETSLGMDTSLGLQSPSQTFCLPQTPEFSKSFSSRNTQTLESNPSPELGDISITPVQSPTNLLTLSPAPSQEKNENENLDEIKTNLSKPLDVHQILIGNQDPPLLPVEIPDIHPLLACIDPLGQEEQPGSENANLRNKSLSLEDQGIFENGIESSSDLADITTWVEDTYLPPIFSSLQDLDQPESPSAKKAKDTSAIKVNQVQEKSCVIKGHSDQVRKNKHKASEPIQGAPKAKIQPKNPECLLEREVVVGSATVSNSASVNKAKHSSNKPHKAASSRISKTKSHGQEKTKGNRKNSSKKSEESKQSGKKVKVEEKQTIPNMKRKKNQPELSQKTLKKPRSSLGMHMLESVQVFHALGKKIDMKTGFSSSRTLGSSSNTQNRQPFPALKPWLDIQHEGKGPEKIQVKAQKLDGSAEKECTSPSHSELPPPGKVKLIPLPFLTLDQPQARHVSRRPNPLASRRPAVAYPARPDSTNSAQSNAVNPSRPAPTNTSLTGPATPAQPISAKATQPSSANPTQPTVPQSAASRPSAYKTSSCSSLQREPVSTAVTSLRSLPKPQNQFLIQDFSLQPRPWRKPTVPEPVMSTPITEEQRPEREAMKRKAQQERENAAKYTSLGKVQFFIERERDMEIAEYYGYTI
B4: SLC12A2 (protein, UniProt P55011 1-1212)
chain: MEPRPTAPSSGAPGLAGVGETPSAAALAAARVELPGTAVPSVPEDAAPASRDGGGVRDEGPAAAGDGLGRPLGPTPSQSRFQVDLVSENAGRAAAAAAAAAAAAAAAGAGAGAKQTPADGEASGESEPAKGSEEAKGRFRVNFVDPAASSSAEDSLSDAAGVGVDGPNVSFQNGGDTVLSEGSSLHSGGGGGSGHHQHYYYDTHTNTYYLRTFGHNTMDAVPRIDHYRHTAAQLGEKLLRPSLAELHDELEKEPFEDGFANGEESTPTRDAVVTYTAESKGVVKFGWIKGVLVRCMLNIWGVMLFIRLSWIVGQAGIGLSVLVIMMATVVTTITGLSTSAIATNGFVRGGGAYYLISRSLGPEFGGAIGLIFAFANAVAVAMYVVGFAETVVELLKEHSILMIDEINDIRIIGAITVVILLGISVAGMEWEAKAQIVLLVILLLAIGDFVIGTFIPLESKKPKGFFGYKSEIFNENFGPDFREEETFFSVFAIFFPAATGILAGANISGDLADPQSAIPKGTLLAILITTLVYVGIAVSVGSCVVRDATGNVNDTIVTELTNCTSAACKLNFDFSSCESSPCSYGLMNNFQVMSMVSGFTPLISAGIFSATLSSALASLVSAPKIFQALCKDNIYPAFQMFAKGYGKNNEPLRGYILTFLIALGFILIAELNVIAPIISNFFLASYALINFSVFHASLAKSPGWRPAFKYYNMWISLLGAILCCIVMFVINWWAALLTYVIVLGLYIYVTYKKPDVNWGSSTQALTYLNALQHSIRLSGVEDHVKNFRPQCLVMTGAPNSRPALLHLVHDFTKNVGLMICGHVHMGPRRQAMKEMSIDQAKYQRWLIKNKMKAFYAPVHADDLREGAQYLMQAAGLGRMKPNTLVLGFKKDWLQADMRDVDMYINLFHDAFDIQYGVVVIRLKEGLDISHLQGQEELLSSQEKSPGTKDVVVSVEYSKKSDLDTSKPLSEKPITHKVEEEDGKTATQPLLKKESKGPIVPLNVADQKLLEASTQFQKKQGKNTIDVWWLFDDGGLTLLIPYLLTTKKKWKDCKIRVFIGGKINRIDHDRRAMATLLSKFRIDFSDIMVLGDINTKPKKENIIAFEEIIEPYRLHEDDKEQDIADKMKEDEPWRITDNELELYKTKTYRQIRLNELLKEHSSTANIIVMSLPVARKGAVSSALYMAWLEALSKDLPPILLVRGNHQSVLTFYS
B5: FEM1A (protein, UniProt Q9BSK4 1-669)
chain: MDLRTAVYNAARDGKLQLLQKLLSGRSREELDELTGEVAGGGTPLLIAARYGHLDVVEYLVDRCGASVEAGGSVHFDGETIEGAPPLWAASAAGHLDVVRSLLRRGASVNRTTRTNSTPLRAACFDGHLEVVRYLVGEHQADLEVANRHGHTCLMISCYKGHREIARYLLEQGAQVNRRSAKGNTALHDCAESGSLEILQLLLGCKARMERDGYGMTPLLAASVTGHTNIVEYLIQEQPGQEQVAGGEAQPGLPQEDPSTSQGCAQPQGAPCCSSSPEEPLNGESYESCCPTSREAAVEALELLGATYVDKKRDLLGALKHWRRAMELRHQGGEYLPKPEPPQLVLAYDYSREVNTTEELEALITDPDEMRMQALLIRERILGPSHPDTSYYIRYRGAVYADSGNFERCIRLWKYALDMQQSNLEPLSPMTASSFLSFAELFSYVLQDRAAKGSLGTQIGFADLMGVLTKGVREVERALQLPREPGDSAQFTKALAIILHLLYLLEKVECTPSQEHLKHQTVYRLLKCAPRGKNGFTPLHMAVDKDTTNVGRYPVGRFPSLHVVKVLLDCGADPDSRDFDNNTPLHIAAQNNCPAIMNALIEAGAHMDATNAFKKTAYELLDEKLLARGTMQPFNYVTLQCLAARALDKNKIPYKGFIPEDLEAFIELH

Protein sequences, listed by entry. Tags and fused reporters are not part of them. Lines headed by an entry give the natural chain unless they say otherwise; changes in a name come on top.
UniProt Q9H239: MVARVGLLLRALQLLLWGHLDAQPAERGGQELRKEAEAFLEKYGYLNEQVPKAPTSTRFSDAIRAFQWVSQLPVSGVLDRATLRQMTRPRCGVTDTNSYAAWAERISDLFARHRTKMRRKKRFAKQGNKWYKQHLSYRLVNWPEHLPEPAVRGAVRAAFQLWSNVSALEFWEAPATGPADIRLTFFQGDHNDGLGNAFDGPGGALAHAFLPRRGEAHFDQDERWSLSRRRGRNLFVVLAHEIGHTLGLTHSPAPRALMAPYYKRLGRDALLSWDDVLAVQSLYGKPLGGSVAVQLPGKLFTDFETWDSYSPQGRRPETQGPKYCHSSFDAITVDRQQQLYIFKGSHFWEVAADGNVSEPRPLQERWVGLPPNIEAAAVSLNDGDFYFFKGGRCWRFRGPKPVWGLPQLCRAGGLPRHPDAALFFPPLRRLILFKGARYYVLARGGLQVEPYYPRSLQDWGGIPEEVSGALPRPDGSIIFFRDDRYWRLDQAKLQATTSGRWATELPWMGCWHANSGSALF

Our source for the binding values is paper PMC11837641.

Results are given in words; binding and its absence hold for the method and conditions named. In cells and extracts the contact can be indirect. Here binding means that the protein was enriched with, or labelled near, the bait; the list need not be complete.

The assay addresses matrix metalloproteinase 28 (MMP28) (human (endogenous in AsPC-1 and BxPC-3)) (UniProt Q9H239). As to the kind of experiment: affinity purification with mass spectrometry; BxPC-3 whole-cell lysate (enhanced RIPA buffer) incubated with MMP28 antibody or IgG control at 4 °C overnight, protein A/G agarose 3 h, five RIPA washes; LC-MS/MS; top 30 candidates listed.
Consider B1, for which the binding entry was “binds”.

As for B2, the binding entry is “binds”.

In the case of B3, the binding entry is “binds”.

Regarding B4, the binding entry is “binds”.

With B5, the binding result is given as “binds”.
